The other results are listed elsewhere or left out.
Columns and labels:
Experiment in all cases: log2 fold change, soluble protein after heating vs DMSO (PISA); higher = thermal stabilisation; K562 cells, 10 uM, 30 min; active = over 0.2 and 3.5 SD of the protein, either way, in both replicates (recomputed)
[1] = compound: COC1=CC=C(C=C1)CN2C=CC3=C2C=C(C=C3)C(=O)NO
In short: (§1)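 K562 cells at 2×10^6 cells/mL were given 10 μM compound for 30 min. Aliquots then went through 3 min of heating across 48°C-58°C, were pooled, and were extracted in PBS with 0.5% NP-40 at 4°C, and the supernatant after 21,000xg for 90 min was quantified by TMTpro 16plex LC-MS/MS with channel sums equalised. Thermal stability relative to control samples, from duplicates, is given as log2 fold change.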

By UniProt entry, the sequences of proteins in these tests, tags left out. Where a name states a change or a piece, a line headed by the entry shows the natural chain unless it says otherwise.
UniProt Q00013: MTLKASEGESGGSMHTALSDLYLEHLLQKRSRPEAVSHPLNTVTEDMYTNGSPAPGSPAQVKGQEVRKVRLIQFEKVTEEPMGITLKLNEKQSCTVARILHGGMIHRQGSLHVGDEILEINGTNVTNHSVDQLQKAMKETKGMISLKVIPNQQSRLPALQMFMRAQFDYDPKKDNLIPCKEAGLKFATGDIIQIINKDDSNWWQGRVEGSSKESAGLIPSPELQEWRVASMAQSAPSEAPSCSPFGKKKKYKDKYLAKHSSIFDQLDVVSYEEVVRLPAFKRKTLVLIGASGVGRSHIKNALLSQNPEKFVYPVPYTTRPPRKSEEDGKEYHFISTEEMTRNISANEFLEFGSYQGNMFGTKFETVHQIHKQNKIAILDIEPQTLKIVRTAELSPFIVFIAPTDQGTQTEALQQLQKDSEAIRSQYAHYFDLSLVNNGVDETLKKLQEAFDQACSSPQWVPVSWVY
UniProt Q99583: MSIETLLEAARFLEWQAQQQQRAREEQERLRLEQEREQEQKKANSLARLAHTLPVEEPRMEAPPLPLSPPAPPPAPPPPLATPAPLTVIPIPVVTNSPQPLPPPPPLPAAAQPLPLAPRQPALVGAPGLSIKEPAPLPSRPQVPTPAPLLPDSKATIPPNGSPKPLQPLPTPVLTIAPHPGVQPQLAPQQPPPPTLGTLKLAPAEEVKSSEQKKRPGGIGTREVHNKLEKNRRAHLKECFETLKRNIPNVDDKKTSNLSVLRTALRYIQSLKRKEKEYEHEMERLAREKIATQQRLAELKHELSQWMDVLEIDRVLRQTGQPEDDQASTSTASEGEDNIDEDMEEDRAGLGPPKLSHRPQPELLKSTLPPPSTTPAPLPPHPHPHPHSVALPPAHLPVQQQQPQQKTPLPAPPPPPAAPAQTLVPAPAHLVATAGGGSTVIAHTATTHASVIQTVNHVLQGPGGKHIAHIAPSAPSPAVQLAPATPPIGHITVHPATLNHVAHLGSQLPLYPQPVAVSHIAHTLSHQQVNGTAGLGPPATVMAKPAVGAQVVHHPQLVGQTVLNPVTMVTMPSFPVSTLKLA
UniProt Q14149: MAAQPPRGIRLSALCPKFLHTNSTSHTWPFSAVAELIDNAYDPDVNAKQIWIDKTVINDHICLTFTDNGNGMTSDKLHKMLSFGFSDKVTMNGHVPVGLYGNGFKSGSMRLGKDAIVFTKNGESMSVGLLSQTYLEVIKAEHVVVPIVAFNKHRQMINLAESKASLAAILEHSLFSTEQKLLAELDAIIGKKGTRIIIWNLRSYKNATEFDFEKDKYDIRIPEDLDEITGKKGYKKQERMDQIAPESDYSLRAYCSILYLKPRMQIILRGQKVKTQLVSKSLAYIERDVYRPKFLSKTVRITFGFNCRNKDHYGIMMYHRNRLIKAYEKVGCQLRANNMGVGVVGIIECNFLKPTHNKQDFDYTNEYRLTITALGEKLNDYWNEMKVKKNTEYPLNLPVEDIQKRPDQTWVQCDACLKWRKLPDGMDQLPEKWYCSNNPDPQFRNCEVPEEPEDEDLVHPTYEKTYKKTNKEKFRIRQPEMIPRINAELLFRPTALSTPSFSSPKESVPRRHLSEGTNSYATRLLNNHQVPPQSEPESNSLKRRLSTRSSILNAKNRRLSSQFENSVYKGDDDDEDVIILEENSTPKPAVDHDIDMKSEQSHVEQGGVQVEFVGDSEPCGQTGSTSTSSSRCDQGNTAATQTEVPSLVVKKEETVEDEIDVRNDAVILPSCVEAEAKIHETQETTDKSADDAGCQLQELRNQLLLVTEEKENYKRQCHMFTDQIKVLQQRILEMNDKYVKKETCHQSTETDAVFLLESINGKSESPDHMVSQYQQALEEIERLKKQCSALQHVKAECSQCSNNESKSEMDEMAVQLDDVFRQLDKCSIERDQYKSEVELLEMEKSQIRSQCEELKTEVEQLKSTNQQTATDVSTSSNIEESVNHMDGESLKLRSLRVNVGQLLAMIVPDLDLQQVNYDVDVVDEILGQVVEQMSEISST
UniProt P51948: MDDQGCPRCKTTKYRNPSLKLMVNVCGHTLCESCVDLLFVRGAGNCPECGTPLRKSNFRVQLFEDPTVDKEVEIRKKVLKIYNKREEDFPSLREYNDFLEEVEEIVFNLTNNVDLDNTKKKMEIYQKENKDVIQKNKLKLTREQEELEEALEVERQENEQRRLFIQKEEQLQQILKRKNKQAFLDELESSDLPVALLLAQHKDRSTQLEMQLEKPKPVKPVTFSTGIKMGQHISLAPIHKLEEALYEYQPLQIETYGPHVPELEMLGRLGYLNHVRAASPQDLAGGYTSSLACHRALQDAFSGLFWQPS
UniProt Q99549: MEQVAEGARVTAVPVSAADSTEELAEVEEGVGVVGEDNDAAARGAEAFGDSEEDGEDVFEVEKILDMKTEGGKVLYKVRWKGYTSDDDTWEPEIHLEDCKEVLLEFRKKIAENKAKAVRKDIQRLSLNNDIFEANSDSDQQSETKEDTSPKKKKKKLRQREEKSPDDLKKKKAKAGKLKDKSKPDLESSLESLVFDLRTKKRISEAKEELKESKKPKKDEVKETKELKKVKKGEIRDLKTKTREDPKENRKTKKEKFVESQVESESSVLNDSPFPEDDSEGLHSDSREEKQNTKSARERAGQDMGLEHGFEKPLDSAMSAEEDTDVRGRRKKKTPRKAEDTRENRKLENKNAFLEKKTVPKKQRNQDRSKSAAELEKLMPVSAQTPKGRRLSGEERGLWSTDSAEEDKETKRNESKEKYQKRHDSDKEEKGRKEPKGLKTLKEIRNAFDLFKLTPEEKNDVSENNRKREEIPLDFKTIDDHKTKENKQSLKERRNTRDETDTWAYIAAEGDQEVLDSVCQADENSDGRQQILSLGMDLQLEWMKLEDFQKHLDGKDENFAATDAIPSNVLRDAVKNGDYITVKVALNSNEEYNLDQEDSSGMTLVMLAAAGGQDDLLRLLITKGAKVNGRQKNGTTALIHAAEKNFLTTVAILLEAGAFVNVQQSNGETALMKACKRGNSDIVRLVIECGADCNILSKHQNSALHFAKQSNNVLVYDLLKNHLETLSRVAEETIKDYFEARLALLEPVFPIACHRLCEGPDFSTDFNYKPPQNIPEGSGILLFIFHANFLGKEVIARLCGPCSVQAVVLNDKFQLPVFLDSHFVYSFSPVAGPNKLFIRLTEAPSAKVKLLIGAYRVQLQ
UniProt P14174: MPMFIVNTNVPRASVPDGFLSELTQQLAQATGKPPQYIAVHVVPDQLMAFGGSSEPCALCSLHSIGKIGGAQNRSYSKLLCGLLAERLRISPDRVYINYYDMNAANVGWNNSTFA
UniProt O96007: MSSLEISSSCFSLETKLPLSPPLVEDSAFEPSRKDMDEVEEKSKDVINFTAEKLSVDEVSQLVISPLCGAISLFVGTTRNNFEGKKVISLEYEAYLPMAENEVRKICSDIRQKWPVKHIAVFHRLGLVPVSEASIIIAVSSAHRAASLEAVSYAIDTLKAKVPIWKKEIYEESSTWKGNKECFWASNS
UniProt Q9H000: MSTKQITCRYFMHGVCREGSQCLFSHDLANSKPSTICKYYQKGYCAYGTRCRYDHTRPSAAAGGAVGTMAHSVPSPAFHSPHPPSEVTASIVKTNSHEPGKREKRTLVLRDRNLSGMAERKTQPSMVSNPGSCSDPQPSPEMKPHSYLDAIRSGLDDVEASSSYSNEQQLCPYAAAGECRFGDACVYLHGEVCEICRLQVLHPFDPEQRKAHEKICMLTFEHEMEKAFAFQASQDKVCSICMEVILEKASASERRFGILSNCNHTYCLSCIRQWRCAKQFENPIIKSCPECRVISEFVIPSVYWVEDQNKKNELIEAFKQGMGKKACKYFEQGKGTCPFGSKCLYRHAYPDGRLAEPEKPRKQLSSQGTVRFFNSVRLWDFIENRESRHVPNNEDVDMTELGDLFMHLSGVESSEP

filanesib = compound: CON(C)C(=O)N1N=C(c2cc(F)ccc2F)S[C@@]1(CCCN)c1ccccc1 [filanesib]
In short: as §1

zotarolimus = compound: CO[C@H]1C[C@@H]2CC[C@@H](C)[C@@](O)(O2)C(=O)C(=O)N2CCCC[C@H]2C(=O)O[C@H]([C@H](C)C[C@@H]2CC[C@H](n3cnnn3)[C@H](OC)C2)CC(=O)[C@H](C)/C=C(\C)[C@@H](O)[C@@H](OC)C(=O)[C@H](C)C[C@H](C)/C=C/C=C/C=C/1C [zotarolimus]
In short: as §1

idasanutlin = compound: COc1cc(C(=O)O)ccc1NC(=O)[C@@H]1N[C@@H](CC(C)(C)C)[C@](C#N)(c2ccc(Cl)cc2F)[C@H]1c1cccc(Cl)c1F [idasanutlin]
In short: as §1

alisertib = compound: COc1cc(Nc2ncc3c(n2)-c2ccc(Cl)cc2C(c2c(F)cccc2OC)=NC3)ccc1C(=O)O [alisertib]
In short: as §1

[2] = compound: COc1cc2nc(-c3cc(F)ccc3O)nc(N[C@@H]3CNC[C@H]3C(C)(C)O)c2cc1OC
In short: as §1

gefitinib = compound: COc1cc2ncnc(Nc3ccc(F)c(Cl)c3)c2cc1OCCCN1CCOCC1 [gefitinib]
In short: as §1

[3] = compound: COc1cccc2cc(-c3nc([C@H]4CC[C@H](C(=O)O)CC4)n4ncnc(N)c34)[nH]c12
In short: as §1

lapatinib = compound: CS(=O)(=O)CCNCc1ccc(-c2ccc3ncnc(Nc4ccc(OCc5cccc(F)c5)c(Cl)c4)c3c2)o1 [lapatinib]
In short: as §1

pictilisib = compound: CS(=O)(=O)N1CCN(Cc2cc3nc(-c4cccc5[nH]ncc45)nc(N4CCOCC4)c3s2)CC1 [pictilisib]
In short: as §1

[4] = compound: CS(=O)(=O)c1ccc(-c2cnc(N)c(C(=O)Nc3ccccc3)n2)cc1
In short: as §1

crizotinib = compound: C[C@@H](Oc1cc(-c2cnn(C3CCNCC3)c2)cnc1N)c1c(Cl)ccc(F)c1Cl [crizotinib]
In short: as §1

[5] = compound: C[C@@H]1COCCN1C2=NC(=NC(=C2)C3(CC3)S(=O)(=O)C)C4=C5C=CNC5=CC=C4
In short: as §1

[6] = compound: C[C@H](C1=CC=C(C=C1)C(=O)NC2=C3C=CNC3=NC=C2)N
In short: as §1

gandotinib = compound: Cc1cc(Nc2cc(CN3CCOCC3)c3nc(C)c(Cc4ccc(Cl)cc4F)n3n2)n[nH]1 [gandotinib]
In short: as §1

[7] = compound: Cc1cc(SCc2sc(-c3ccc(C(F)(F)F)cc3)nc2C)ccc1OCC(=O)O
In short: as §1

doramapimod = compound: Cc1ccc(-n2nc(C(C)(C)C)cc2NC(=O)Nc2ccc(OCCN3CCOCC3)c3ccccc23)cc1 [doramapimod]
In short: as §1

ispinesib = compound: Cc1ccc(C(=O)N(CCCN)[C@@H](c2nc3cc(Cl)ccc3c(=O)n2Cc2ccccc2)C(C)C)cc1 [ispinesib]
In short: as §1

tozasertib = compound: Cc1cc(Nc2cc(N3CCN(C)CC3)nc(Sc3ccc(NC(=O)C4CC4)cc3)n2)n[nH]1 [tozasertib]
In short: as §1

duvelisib = compound: C[C@H](Nc1ncnc2nc[nH]c12)c1cc2cccc(Cl)c2c(=O)n1-c1ccccc1 [duvelisib]
In short: as §1

## MPP1 (UniProt Q00013)
[1]
  log2 fold change: inactive: 0.024
filanesib
  log2 fold change: inactive: -0.041
zotarolimus
  log2 fold change: inactive: -0.027
idasanutlin
  log2 fold change: inactive: 0.069
alisertib
  log2 fold change: inactive: 0.032
[2]
  log2 fold change: inactive: 0.016
gefitinib
  log2 fold change: inactive: 0.114
[3]
  log2 fold change: inactive: -0.074
lapatinib
  log2 fold change: inactive: 0.032
pictilisib
  log2 fold change: inactive: 0.096
[4]
  log2 fold change: inactive: 0.064
crizotinib
  log2 fold change: inactive: -0.092
[5]
  log2 fold change: inactive: 0.05
[6]
  log2 fold change: inactive: 0.001
gandotinib
  log2 fold change: inactive: -0.073
[7]
  log2 fold change: inactive: 0.061
doramapimod
  log2 fold change: inactive: 0.023
ispinesib
  log2 fold change: inactive: -0.108

## MNT (UniProt Q99583)
[1]
  log2 fold change: inactive: 0.016
filanesib
  log2 fold change: inactive: -0.025
zotarolimus
  log2 fold change: inactive: -0.062
idasanutlin
  log2 fold change: inactive: 0.049
alisertib
  log2 fold change: inactive: 0.17
[2]
  log2 fold change: inactive: -0.041
gefitinib
  log2 fold change: inactive: 0.168
[3]
  log2 fold change: inactive: -0.048
lapatinib
  log2 fold change: inactive: -0.012
pictilisib
  log2 fold change: inactive: 0.064
[4]
  log2 fold change: inactive: -0.018
crizotinib
  log2 fold change: inactive: 0.16
[5]
  log2 fold change: inactive: 0.036
[6]
  log2 fold change: inactive: -0.025
gandotinib
  log2 fold change: inactive: -0.076
tozasertib
  log2 fold change: inactive: 0.158
doramapimod
  log2 fold change: inactive: -0.001
ispinesib
  log2 fold change: inactive: -0.015

## MORC3 (UniProt Q14149)
[1]
  log2 fold change: inactive: 0.013
filanesib
  log2 fold change: inactive: -0.04
zotarolimus
  log2 fold change: inactive: 0.015
idasanutlin
  log2 fold change: inactive: 0.021
alisertib
  log2 fold change: inactive: 0.039
[2]
  log2 fold change: inactive: 0.146
gefitinib
  log2 fold change: inactive: -0.082
[3]
  log2 fold change: inactive: 0
lapatinib
  log2 fold change: inactive: -0.058
pictilisib
  log2 fold change: inactive: 0.196
[4]
  log2 fold change: inactive: 0.058
crizotinib
  log2 fold change: inactive: 0.052
[5]
  log2 fold change: inactive: 0.197
[6]
  log2 fold change: inactive: -0.106
gandotinib
  log2 fold change: inactive: -0.017
[7]
  log2 fold change: inactive: 0.122
doramapimod
  log2 fold change: inactive: -0.067
ispinesib
  log2 fold change: inactive: 0.041

## MRPL47 (UniProt Q9HD33)
[1]
  log2 fold change: inactive: -0.068
filanesib
  log2 fold change: inactive: 0.183
zotarolimus
  log2 fold change: inactive: 0.072
idasanutlin
  log2 fold change: inactive: -0.042
alisertib
  log2 fold change: inactive: -0.087
[2]
  log2 fold change: inactive: -0.033
gefitinib
  log2 fold change: inactive: -0.134
[3]
  log2 fold change: inactive: -0.186
lapatinib
  log2 fold change: inactive: 0.072
pictilisib
  log2 fold change: active: 0.745
[4]
  log2 fold change: inactive: 0.039
crizotinib
  log2 fold change: inactive: 0.019
[5]
  log2 fold change: inactive: -0.087
[6]
  log2 fold change: inactive: 0.261
gandotinib
  log2 fold change: active: 0.625
[7]
  log2 fold change: inactive: 0.095
doramapimod
  log2 fold change: inactive: 0.11
ispinesib
  log2 fold change: inactive: -0.237

## MNAT1 (UniProt P51948)
[1]
  log2 fold change: inactive: -0.025
filanesib
  log2 fold change: inactive: 0.073
zotarolimus
  log2 fold change: inactive: 0.011
idasanutlin
  log2 fold change: inactive: 0.021
alisertib
  log2 fold change: inactive: -0.047
[2]
  log2 fold change: inactive: -0.04
gefitinib
  log2 fold change: inactive: -0.039
[3]
  log2 fold change: inactive: 0.036
lapatinib
  log2 fold change: inactive: 0.009
pictilisib
  log2 fold change: inactive: -0.016
[4]
  log2 fold change: inactive: 0.007
crizotinib
  log2 fold change: inactive: 0.02
[5]
  log2 fold change: inactive: -0.068
[6]
  log2 fold change: inactive: -0.036
gandotinib
  log2 fold change: inactive: 0.024
[7]
  log2 fold change: inactive: 0.005
doramapimod
  log2 fold change: inactive: -0.057
ispinesib
  log2 fold change: inactive: 0.089

## MPHOSPH8 isoform 2 (UniProt Q99549)
[1]
  log2 fold change: inactive: -0.002
filanesib
  log2 fold change: inactive: 0.128
zotarolimus
  log2 fold change: inactive: -0.191
idasanutlin
  log2 fold change: inactive: 0.062
alisertib
  log2 fold change: inactive: -0.016
[2]
  log2 fold change: inactive: 0.032
[3]
  log2 fold change: inactive: 0.125
lapatinib
  log2 fold change: inactive: 0.024
[4]
  log2 fold change: inactive: -0.068
crizotinib
  log2 fold change: inactive: -0.036
[5]
  log2 fold change: inactive: -0.05
[6]
  log2 fold change: inactive: 0.045
[7]
  log2 fold change: inactive: -0.018
doramapimod
  log2 fold change: inactive: 0.059
ispinesib
  log2 fold change: inactive: 0.18

## MIF (UniProt P14174)
[1]
  log2 fold change: inactive: 0.027
filanesib
  log2 fold change: inactive: 0.024
zotarolimus
  log2 fold change: inactive: 0.029
idasanutlin
  log2 fold change: inactive: 0.043
alisertib
  log2 fold change: inactive: 0.043
[2]
  log2 fold change: inactive: -0.082
gefitinib
  log2 fold change: inactive: 0.082
[3]
  log2 fold change: inactive: -0.043
lapatinib
  log2 fold change: inactive: -0.034
pictilisib
  log2 fold change: inactive: -0.141
[4]
  log2 fold change: inactive: -0.027
crizotinib
  log2 fold change: inactive: 0.025
[5]
  log2 fold change: inactive: 0.111
[6]
  log2 fold change: inactive: -0.048
gandotinib
  log2 fold change: inactive: 0.079
[7]
  log2 fold change: inactive: -0.025
doramapimod
  log2 fold change: inactive: -0.019
ispinesib
  log2 fold change: inactive: 0.055

## MOCS2 (UniProt O96007)
[1]
  log2 fold change: inactive: 0.01
filanesib
  log2 fold change: inactive: -0.05
zotarolimus
  log2 fold change: inactive: -0.031
idasanutlin
  log2 fold change: inactive: -0.042
alisertib
  log2 fold change: inactive: 0.044
[2]
  log2 fold change: inactive: 0.061
gefitinib
  log2 fold change: inactive: -0.01
[3]
  log2 fold change: inactive: 0.067
lapatinib
  log2 fold change: inactive: -0.041
pictilisib
  log2 fold change: inactive: 0.111
[4]
  log2 fold change: inactive: -0.012
crizotinib
  log2 fold change: inactive: 0.048
[5]
  log2 fold change: inactive: 0.038
[6]
  log2 fold change: inactive: 0.025
duvelisib
  log2 fold change: inactive: 0.059
gandotinib
  log2 fold change: inactive: -0.033
tozasertib
  log2 fold change: inactive: 0.004
[7]
  log2 fold change: inactive: -0.06
doramapimod
  log2 fold change: inactive: 0.004
ispinesib
  log2 fold change: inactive: -0.01

## MKRN2 (UniProt Q9H000)
[1]
  log2 fold change: inactive: 0.024
filanesib
  log2 fold change: inactive: 0.137
zotarolimus
  log2 fold change: inactive: -0.035
idasanutlin
  log2 fold change: inactive: 0.147
alisertib
  log2 fold change: inactive: -0.009
[2]
  log2 fold change: inactive: 0.101
gefitinib
  log2 fold change: inactive: -0.099
[3]
  log2 fold change: inactive: -0.079
lapatinib
  log2 fold change: inactive: -0.027
pictilisib
  log2 fold change: inactive: 0.03
[4]
  log2 fold change: inactive: -0.035
crizotinib
  log2 fold change: inactive: -0.094
[5]
  log2 fold change: inactive: -0.077
[6]
  log2 fold change: inactive: 0.117
gandotinib
  log2 fold change: inactive: 0.221
[7]
  log2 fold change: inactive: 0.076
doramapimod
  log2 fold change: inactive: -0.005
ispinesib
  log2 fold change: inactive: -0.161

From the supplement of paper PMC10849652
